Data from the primary screen of doi:10.1371/journal.pone.0140310, rounded.

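Human melanoma cell lines in 1,536-well plates were treated with two drugs together for 72 h, then fixed, stained and imaged. Each value is the cleaved-PARP-positive fraction of nuclei relative to DMSO-treated wells, in %, so that 100 equals the control and higher values mean more apoptosis. Every drug was used at one fixed concentration, the higher of two screened. These are primary screening values without error estimates. The marker varies much from line to line, for technical or biological reasons.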 An unselected part of the screen is shown.

Drugs:
decitabine: Nc1ncn([C@H]2C[C@H](O)[C@@H](CO)O2)c(=O)n1 at 500 nM
cisplatin: N.N.[Cl][Pt][Cl] at 8000 nM
PLX4720: CCCS(=O)(=O)Nc1ccc(F)c(C(=O)c2c[nH]c3ncc(Cl)cc23)c1F at 400 nM
SNS-314: O=C(Nc1cccc(Cl)c1)Nc1ncc(CCNc2ncnc3ccsc23)s1 at 4 nM
AZD7762: NC(=O)Nc1cc(-c2cccc(F)c2)sc1C(=O)N[C@H]1CCCNC1 at 100 nM
nilotinib: Cc1cn(-c2cc(NC(=O)c3ccc(C)c(Nc4nccc(-c5cccnc5)n4)c3)cc(C(F)(F)F)c2)cn1 at 1000 nM
ABT-263: CC1(C)CCC(c2ccc(Cl)cc2)=C(CN2CCN(c3ccc(C(=O)NS(=O)(=O)c4ccc(N[C@H](CCN5CCOCC5)CSc5ccccc5)c(S(=O)(=O)C(F)(F)F)c4)cc3)CC2)C1 at 2000 nM
cediranib: COc1cc2c(Oc3ccc4[nH]c(C)cc4c3F)ncnc2cc1OCCCN1CCCC1 at 2000 nM
sunitinib: CCN(CC)CCNC(=O)c1c(C)[nH]c(/C=C2\C(=O)Nc3ccc(F)cc32)c1C at 2000 nM

Drugs	C32	WM451Lu	UACC-257	LOX IMVI	SK-MEL-30	COLO 792	UACC-62	G-361	SK-MEL-5	WM3526
AZD7762 and SNS-314	320	162	143	125	263	439	113	96.9	111	284
cisplatin and PLX4720	106	82.3	264	42.1	58.1	209	276	162	127	105
cisplatin and nilotinib	137	81.5	29.5	38.7	143	65.7	55.5	141	300	167
AZD7762 and cediranib	450	167	103	149	702	273	144	217	293	1110
ABT-263 and cediranib	85.3	83.2	864	142	475	3500	88.9	143	94.2	149
cediranib and SNS-314	41.3	161	89.8	96.9	47.5	136	121	125	48.4	141
SNS-314 and decitabine	53.9	133	51.0	57.6	88.8	290	98.4	160	200	174
cisplatin and sunitinib	82.2	101	200	120	74.4	136	192	135	127	259
cisplatin and cediranib	180	65.8	59.9	121	188	45.0	107	89.8	100	136
AZD7762 and PLX4720	416	115	41.1	99.8	475	439	212	158	84.7	492
sunitinib and PLX4720	379	358	58.8	99.3	57.4	68.2	148	200	276	896
sunitinib and AZD7762	77.9	234	34.7	60.2	488	339	125	118	477	910
AZD7762 and cisplatin	139	475	304	247	298	527	212	147	50.6	1410
PLX4720 and SNS-314	204	170	44.9	78.5	128	178	194	247	3650	174
decitabine and cediranib	58.0	56.4	68.8	104	86.1	128	142	86.0	126	180
ABT-263 and decitabine	596	179	2050	150	253	1230	290	219	134	153
ABT-263 and sunitinib	44.4	190	699	76.3	2170	8760	341	219	1910	533
nilotinib and decitabine	58.9	73.1	85.5	184	52.6	92.0	131	112	98.0	148
ABT-263 and PLX4720	240	214	730	62.4	562	1500	292	456	925	955
cisplatin and decitabine	53.9	259	220	178	179	78.5	247	127	202	156
nilotinib and PLX4720	139	38.9	30.8	159	115	50.1	401	121	186	221
sunitinib and decitabine	93.2	116	243	69.0	187	205	182	126	206	246

Some entries from above, unchanged:

- AZD7762 and PLX4720 : C32: 416; WM451Lu: 115; UACC-257: 41.1; LOX IMVI: 99.8; SK-MEL-30: 475; COLO 792: 439; UACC-62: 212; G-361: 158; SK-MEL-5: 84.7; WM3526: 492
- cisplatin and sunitinib : C32: 82.2; WM451Lu: 101; UACC-257: 200; LOX IMVI: 120; SK-MEL-30: 74.4; COLO 792: 136; UACC-62: 192; G-361: 135; SK-MEL-5: 127; WM3526: 259
- cisplatin and cediranib : C32: 180; WM451Lu: 65.8; UACC-257: 59.9; LOX IMVI: 121; SK-MEL-30: 188; COLO 792: 45.0; UACC-62: 107; G-361: 89.8; SK-MEL-5: 100; WM3526: 136